Measured values from article PMC10641178.
These are yes or no findings as the source states them, for the method shown. Binding seen in cells or lysates may run through a third protein. For some assays here: Binding calls can cover weak binding; strength is not graded here.

How the values were obtained:
[1] = biological target: His-tagged CC domain of RUFY3; experiment: pull-down; in vitro pull-down of HPIP with His-tagged wt RUFY3 and RUFY3 domains (CC, RUN, FYVE); conditions not given
[2] = biological target: His-tagged FYVE domain of RUFY3; experiment: as above

binding [1]: binds
binding [2]: no binding
B1: HPIP used in the in vitro pull-down with RUFY3 domains (protein, UniProt Q96AQ6 1-731)
chain: MASCPDSDNSWVLAGSESLPVETLGPASRMDPESERALQAPHSPSKTDGKELAGTMDGEGTLFQTESPQSGSILTEETEVKGTLEGDVCGVEPPGPGDTVVQGDLQETTVVTGLGPDTQDLEGQSPPQSLPSTPKAAWIREEGRCSSSDDDTDVDMEGLRRRRGREAGPPQPMVPLAVENQAGGEGAGGELGISLNMCLLGALVLLGLGVLLFSGGLSESETGPMEEVERQVLPDPEVLEAVGDRQDGLREQLQAPVPPDSVPSLQNMGLLLDKLAKENQDIRLLQAQLQAQKEELQSLMHQPKGLEEENAQLRGALQQGEAFQRALESELQQLRARLQGLEADCVRGPDGVCLSGGRGPQGDKAIREQGPREQEPELSFLKQKEQLEAEAQALRQELERQRRLLGSVQQDLERSLQDASRGDPAHAGLAELGHRLAQKLQGLENWGQDPGVSANASKAWHQKSHFQNSREWSGKEKWWDGQRDRKAEHWKHKKEESGRERKKNWGGQEDREPAGRWKEGRPRVEESGSKKEGKRQGPKEPPRKSGSFHSSGEKQKQPRWREGTKDSHDPLPSWAELLRPKYRAPQGCSGVDECARQEGLTFFGTELAPVRQQELASLLRTYLARLPWAGQLTKELPLSPAFFGEDGIFRHDRLRFRDFVDALEDSLEEVAVQQTGDDDEVDDFEDFIFSHFFGDKALKKRSGKKDKHSQSPRAAGPREGHSHSHHHHHRG
